Assay results from publication PMC4947123.
No constants are given. Whether binding was seen depends on the method and setting. In cells and extracts the contact can be indirect. These calls come from enrichment with a bait or labelling near it, and not all partners need be listed. For part of these data: No binding means not detected with the bait. Values belong to the substance of their own block, whether it stands above or below them.

Amino acid sequences for entries named in this document (tags omitted). A change or cut given only in a name is not applied to a line headed by its entry.
UniProt Q96CV9: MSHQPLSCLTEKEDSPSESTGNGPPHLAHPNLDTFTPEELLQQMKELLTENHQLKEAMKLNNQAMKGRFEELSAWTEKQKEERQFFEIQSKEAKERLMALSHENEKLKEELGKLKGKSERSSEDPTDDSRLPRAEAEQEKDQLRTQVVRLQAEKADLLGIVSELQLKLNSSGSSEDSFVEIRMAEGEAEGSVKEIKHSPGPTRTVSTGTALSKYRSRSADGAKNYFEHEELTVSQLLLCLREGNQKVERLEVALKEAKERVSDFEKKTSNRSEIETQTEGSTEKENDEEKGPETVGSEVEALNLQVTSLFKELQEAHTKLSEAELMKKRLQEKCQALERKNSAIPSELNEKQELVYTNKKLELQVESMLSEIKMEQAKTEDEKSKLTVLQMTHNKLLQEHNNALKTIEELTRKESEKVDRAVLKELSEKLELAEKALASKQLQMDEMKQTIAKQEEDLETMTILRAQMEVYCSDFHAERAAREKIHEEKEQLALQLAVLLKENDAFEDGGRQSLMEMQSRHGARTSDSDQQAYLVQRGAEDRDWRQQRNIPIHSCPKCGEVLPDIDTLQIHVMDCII
UniProt P35637: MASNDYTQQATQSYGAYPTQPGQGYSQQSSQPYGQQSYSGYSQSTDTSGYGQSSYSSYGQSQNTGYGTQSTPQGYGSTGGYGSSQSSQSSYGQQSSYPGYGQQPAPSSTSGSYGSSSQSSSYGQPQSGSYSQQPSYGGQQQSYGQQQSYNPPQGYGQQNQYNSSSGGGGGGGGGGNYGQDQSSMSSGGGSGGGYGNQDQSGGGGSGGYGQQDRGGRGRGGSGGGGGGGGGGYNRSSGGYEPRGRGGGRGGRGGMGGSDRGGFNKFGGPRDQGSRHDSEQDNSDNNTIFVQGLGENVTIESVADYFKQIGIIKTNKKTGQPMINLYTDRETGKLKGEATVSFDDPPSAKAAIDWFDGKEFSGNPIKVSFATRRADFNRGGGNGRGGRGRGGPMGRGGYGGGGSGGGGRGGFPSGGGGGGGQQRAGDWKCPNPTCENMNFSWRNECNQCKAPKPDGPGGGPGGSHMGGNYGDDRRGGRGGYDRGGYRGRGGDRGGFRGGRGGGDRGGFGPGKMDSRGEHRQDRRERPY
UniProt Q9UHD9: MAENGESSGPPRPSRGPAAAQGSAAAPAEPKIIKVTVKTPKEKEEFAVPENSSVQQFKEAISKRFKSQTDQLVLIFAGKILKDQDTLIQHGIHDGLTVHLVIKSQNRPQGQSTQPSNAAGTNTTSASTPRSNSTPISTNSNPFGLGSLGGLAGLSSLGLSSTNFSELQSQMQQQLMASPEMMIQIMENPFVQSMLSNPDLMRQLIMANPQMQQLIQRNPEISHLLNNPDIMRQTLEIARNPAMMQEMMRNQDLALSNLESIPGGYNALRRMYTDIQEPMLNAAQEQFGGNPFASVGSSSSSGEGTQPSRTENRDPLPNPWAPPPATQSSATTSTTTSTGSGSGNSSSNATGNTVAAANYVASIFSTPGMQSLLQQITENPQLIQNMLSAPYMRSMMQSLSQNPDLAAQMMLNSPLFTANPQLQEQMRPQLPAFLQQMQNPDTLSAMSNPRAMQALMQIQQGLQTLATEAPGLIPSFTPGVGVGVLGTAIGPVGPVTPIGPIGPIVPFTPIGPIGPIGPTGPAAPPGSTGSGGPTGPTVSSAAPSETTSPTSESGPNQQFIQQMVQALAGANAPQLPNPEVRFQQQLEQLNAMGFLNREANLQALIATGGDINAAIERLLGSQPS
UniProt Q96LT7: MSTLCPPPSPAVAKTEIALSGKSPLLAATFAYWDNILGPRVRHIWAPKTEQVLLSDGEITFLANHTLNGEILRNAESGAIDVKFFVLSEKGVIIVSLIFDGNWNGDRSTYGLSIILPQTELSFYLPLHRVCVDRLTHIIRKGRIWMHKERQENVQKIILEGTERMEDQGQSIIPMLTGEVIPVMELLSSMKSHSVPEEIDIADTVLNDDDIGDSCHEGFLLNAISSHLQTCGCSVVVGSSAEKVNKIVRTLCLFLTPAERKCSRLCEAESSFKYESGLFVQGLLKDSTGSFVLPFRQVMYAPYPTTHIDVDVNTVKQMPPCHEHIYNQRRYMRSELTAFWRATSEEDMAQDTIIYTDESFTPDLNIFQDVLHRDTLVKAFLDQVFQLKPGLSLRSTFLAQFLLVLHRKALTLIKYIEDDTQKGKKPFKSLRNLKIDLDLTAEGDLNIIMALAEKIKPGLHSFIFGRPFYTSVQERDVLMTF
UniProt O54833: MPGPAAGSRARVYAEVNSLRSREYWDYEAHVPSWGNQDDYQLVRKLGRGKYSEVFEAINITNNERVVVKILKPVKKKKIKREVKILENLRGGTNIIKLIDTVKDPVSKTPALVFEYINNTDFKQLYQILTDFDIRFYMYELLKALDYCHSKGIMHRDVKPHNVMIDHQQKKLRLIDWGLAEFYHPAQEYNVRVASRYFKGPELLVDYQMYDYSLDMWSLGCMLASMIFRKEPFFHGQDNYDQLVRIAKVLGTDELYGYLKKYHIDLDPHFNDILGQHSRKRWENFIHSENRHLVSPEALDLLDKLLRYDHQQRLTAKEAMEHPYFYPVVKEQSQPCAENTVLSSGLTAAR
UniProt Q61701: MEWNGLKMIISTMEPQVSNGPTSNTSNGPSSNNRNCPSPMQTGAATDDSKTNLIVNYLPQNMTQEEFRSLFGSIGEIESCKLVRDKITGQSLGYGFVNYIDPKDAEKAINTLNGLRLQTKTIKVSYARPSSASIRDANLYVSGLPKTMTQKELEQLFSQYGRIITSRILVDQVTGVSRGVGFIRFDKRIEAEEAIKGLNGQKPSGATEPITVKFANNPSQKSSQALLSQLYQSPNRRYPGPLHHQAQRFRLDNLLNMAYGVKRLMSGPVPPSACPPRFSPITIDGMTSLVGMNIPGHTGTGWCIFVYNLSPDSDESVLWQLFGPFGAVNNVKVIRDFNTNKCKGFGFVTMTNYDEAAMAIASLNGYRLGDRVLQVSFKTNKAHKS
UniProt O70133: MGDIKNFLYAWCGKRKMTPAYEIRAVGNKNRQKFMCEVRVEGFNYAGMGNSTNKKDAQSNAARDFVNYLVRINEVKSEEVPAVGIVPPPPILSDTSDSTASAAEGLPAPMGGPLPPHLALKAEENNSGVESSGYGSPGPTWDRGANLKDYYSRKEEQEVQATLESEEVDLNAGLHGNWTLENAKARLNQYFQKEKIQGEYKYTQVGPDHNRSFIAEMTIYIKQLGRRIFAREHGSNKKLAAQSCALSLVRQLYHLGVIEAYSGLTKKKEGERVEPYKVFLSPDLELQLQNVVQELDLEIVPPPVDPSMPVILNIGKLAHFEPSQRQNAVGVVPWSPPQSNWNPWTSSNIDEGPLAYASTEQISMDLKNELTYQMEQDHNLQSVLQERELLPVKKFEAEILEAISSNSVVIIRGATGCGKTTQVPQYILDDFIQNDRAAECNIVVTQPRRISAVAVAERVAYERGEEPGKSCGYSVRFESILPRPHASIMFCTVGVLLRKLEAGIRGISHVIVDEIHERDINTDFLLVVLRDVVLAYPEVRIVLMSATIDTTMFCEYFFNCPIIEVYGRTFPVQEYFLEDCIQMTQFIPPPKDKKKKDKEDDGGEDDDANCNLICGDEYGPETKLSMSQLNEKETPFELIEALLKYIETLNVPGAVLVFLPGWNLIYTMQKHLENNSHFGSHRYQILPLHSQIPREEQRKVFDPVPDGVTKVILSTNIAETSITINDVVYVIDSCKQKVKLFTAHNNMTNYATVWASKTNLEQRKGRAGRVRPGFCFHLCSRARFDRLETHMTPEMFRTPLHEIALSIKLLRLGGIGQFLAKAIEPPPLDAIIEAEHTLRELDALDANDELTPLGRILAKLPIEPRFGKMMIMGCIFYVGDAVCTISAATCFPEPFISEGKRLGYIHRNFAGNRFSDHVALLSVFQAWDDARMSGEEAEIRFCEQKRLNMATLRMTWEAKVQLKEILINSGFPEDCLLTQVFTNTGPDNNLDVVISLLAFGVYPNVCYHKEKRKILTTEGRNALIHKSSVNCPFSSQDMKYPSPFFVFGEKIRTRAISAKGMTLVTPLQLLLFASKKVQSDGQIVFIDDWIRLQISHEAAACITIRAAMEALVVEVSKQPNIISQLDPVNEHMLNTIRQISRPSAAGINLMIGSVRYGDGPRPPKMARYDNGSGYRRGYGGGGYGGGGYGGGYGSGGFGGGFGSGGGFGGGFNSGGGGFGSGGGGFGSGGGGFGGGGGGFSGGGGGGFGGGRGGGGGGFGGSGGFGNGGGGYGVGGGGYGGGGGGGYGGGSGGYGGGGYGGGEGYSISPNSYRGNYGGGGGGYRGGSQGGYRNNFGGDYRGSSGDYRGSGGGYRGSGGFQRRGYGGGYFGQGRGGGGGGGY
UniProt Q6PHQ9: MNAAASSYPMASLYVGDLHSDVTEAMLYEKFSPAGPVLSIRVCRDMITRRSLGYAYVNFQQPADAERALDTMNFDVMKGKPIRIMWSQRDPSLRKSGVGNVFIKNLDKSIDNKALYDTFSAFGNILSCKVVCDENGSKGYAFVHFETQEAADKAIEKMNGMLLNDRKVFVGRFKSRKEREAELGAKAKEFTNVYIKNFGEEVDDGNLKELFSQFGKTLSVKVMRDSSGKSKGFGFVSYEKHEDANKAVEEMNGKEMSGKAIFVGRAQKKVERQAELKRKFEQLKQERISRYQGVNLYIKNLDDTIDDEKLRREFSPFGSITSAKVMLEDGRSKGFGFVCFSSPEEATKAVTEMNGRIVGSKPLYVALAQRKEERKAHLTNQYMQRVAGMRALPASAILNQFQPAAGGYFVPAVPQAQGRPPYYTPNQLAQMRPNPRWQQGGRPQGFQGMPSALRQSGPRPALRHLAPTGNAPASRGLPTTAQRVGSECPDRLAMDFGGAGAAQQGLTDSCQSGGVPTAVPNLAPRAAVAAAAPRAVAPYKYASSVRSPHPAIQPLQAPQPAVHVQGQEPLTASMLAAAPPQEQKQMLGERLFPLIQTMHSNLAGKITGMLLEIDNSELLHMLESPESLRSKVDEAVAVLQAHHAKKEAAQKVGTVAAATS
UniProt Q9EPU0: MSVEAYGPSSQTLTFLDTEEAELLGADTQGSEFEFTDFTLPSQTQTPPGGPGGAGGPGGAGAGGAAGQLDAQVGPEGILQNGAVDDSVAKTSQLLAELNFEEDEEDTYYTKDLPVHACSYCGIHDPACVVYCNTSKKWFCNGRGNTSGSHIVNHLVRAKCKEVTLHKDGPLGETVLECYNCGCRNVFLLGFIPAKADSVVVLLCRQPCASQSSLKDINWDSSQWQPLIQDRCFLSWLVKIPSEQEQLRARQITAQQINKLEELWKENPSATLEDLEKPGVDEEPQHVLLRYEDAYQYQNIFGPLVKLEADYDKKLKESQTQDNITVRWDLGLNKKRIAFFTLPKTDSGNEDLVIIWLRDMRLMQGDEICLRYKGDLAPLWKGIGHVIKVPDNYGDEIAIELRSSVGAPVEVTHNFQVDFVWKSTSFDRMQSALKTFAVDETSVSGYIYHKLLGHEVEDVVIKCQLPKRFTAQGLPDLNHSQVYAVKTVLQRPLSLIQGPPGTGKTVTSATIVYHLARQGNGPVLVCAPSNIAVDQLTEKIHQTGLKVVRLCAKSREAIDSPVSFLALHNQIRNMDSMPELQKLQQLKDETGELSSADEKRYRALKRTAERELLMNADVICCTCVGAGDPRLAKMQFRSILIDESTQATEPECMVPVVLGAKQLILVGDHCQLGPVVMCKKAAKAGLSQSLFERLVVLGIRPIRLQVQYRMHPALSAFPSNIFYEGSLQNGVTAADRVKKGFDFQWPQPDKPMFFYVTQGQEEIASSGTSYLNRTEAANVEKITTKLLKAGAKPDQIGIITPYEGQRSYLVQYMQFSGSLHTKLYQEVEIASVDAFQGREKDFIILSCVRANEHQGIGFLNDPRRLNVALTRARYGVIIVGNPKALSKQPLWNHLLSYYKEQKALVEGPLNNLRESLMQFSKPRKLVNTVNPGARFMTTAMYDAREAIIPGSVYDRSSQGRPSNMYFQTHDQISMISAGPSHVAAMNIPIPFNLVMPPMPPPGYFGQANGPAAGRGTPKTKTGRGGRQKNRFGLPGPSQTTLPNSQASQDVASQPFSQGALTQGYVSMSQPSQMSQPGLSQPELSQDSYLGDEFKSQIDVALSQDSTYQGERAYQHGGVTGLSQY
UniProt O88569: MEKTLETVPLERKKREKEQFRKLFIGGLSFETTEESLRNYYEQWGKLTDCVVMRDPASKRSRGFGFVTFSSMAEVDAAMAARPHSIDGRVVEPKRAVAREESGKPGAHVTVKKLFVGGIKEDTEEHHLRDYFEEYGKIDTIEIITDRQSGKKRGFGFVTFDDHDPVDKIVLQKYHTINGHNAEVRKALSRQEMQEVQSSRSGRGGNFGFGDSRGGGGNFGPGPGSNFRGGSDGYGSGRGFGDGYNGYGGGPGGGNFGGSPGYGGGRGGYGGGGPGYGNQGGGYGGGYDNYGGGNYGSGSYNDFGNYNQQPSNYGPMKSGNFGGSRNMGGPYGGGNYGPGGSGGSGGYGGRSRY

Key:
Assay in all cases: affinity purification with mass spectrometry; bioGFP-tagged bait co-transfected with BirA in N2A cells; captured from lysate with magnetic streptavidin beads; gel, LC-MS/MS, MaxQuant, PERSEUS, Welch's t test with FDR 0.01 and S0 1.5, triplicate, against GFP or wild type
[1] = biological target: bioGFP-tagged OPTN E478G (UniProt Q96CV9)
[2] = biological target: bioGFP-tagged OPTN wild-type (UniProt Q96CV9)
[3] = biological target: bioGFP-tagged FUS wild-type (human) (UniProt P35637)
[4] = biological target: bioGFP-tagged FUS R521C (human) (UniProt P35637)
[5] = biological target: bioGFP-tagged TDP-43 M337V (UniProt Q13148)
[6] = biological target: bioGFP-tagged TDP-43 wild-type (UniProt Q13148)
[7] = biological target: bioGFP-tagged UBQLN2 wild-type (UniProt Q9UHD9)
[8] = biological target: bioGFP-tagged C9orf72 (UniProt Q96LT7)

binding [1]: no binding
binding [2]: binds
Substance: Casein kinase II subunit alpha (Csnk2a2) (from UniProt O54833 1-350)

binding [7]: binds
Substance: E3 ubiquitin-protein ligase Itchy (Itch) (from UniProt Q8C863 1-864)

binding [5]: binds
binding [6]: binds
binding [3]: binds
binding [4]: binds
Substance: HuD (Elavl4) (from UniProt Q61701 1-385)

binding [5]: binds
binding [6]: binds
binding [3]: binds
binding [4]: binds
Substance: Matrin3 (from UniProt Q8K310 1-846)

binding [7]: binds
Substance: Optn, endogenous (from UniProt Q8K3K8 1-584)

binding [3]: binds
binding [4]: binds
Substance: Parp1 (from UniProt P11103 1-1013)

binding [7]: binds
Substance: Ras-related protein Rab-1A (Rab1a) (from UniProt P62821 1-205)

binding [1]: no binding
binding [2]: binds
Substance: cAMP-dependent protein kinase type I-alpha regulatory subunit (Prkar1a) (from UniProt Q9DBC7 1-381)

Second part, the substance before the results:

Substance: Casein kinase II subunit alpha (Csnk2a1) (from UniProt Q60737 1-391)
binding [1]: no binding
binding [2]: binds

Substance: DNA repair protein XRCC1 (Xrcc1) (from UniProt Q60596 1-631)
binding [3]: binds
binding [4]: binds

Substance: Dhx9 (from UniProt O70133 1-1380)
binding [5]: binds
binding [6]: binds
binding [3]: binds
binding [4]: binds

Substance: Histone H2AX (H2afx) (from UniProt P27661 1-143)
binding [3]: binds
binding [4]: binds

Substance: Mitochondrial import inner membrane translocase subunit TIM50 (Timm50) (from UniProt Q9D880 22-353)
binding [8]: binds

Substance: Pabpc4 (from UniProt Q6PHQ9 1-660)
binding [5]: binds
binding [6]: binds
binding [3]: binds
binding [4]: binds

Substance: Poly (ADP-ribose) polymerase 2 (Parp2) (from UniProt O88554 1-559)
binding [3]: binds
binding [4]: binds

Substance: Pre-mRNA-splicing factor ATP-dependent RNA helicase DHX15 (Dhx15) (from UniProt O35286 1-795)
binding [1]: no binding
binding [2]: binds

Substance: TNFAIP3-interacting protein 1 (Tnip1) (from UniProt Q9WUU8 1-647)
binding [2]: binds

Substance: Upf1 (from UniProt Q9EPU0 1-1124)
binding [5]: binds
binding [6]: binds
binding [3]: binds
binding [4]: binds

Substance: X-ray repair cross-complementing protein 5 (Xrcc5) (from UniProt P27641 1-732)
binding [3]: binds
binding [4]: binds

Substance: X-ray repair cross-complementing protein 6 (Xrcc6) (from UniProt P23475 1-608)
binding [3]: binds
binding [4]: binds

Substance: hnRNPA2B1 (from UniProt O88569 1-353)
binding [3]: binds
binding [8]: no binding
binding [4]: binds

Substance: hnRNPK (from UniProt P61979 1-463)
binding [5]: binds
binding [6]: binds

Substance: ubiquilin 1 (Ubqln1) (from UniProt Q8R317 1-582)
binding [8]: no binding

Substance: valosin-containing protein (Vcp) (from UniProt Q01853 1-806)
binding [7]: binds
binding [1]: no binding
binding [2]: binds
